# Assay results reported in the supplement of paper PMC12823440, “Inhibitors supercharge kinase turnover through native proteolytic circuits” (Nature, 2025).
# The chains behind the UniProt entries cited, without tags or fusion partners. Where a name states a change or a piece, a line headed by the entry shows the natural chain unless it says otherwise.
# UniProt Q12851: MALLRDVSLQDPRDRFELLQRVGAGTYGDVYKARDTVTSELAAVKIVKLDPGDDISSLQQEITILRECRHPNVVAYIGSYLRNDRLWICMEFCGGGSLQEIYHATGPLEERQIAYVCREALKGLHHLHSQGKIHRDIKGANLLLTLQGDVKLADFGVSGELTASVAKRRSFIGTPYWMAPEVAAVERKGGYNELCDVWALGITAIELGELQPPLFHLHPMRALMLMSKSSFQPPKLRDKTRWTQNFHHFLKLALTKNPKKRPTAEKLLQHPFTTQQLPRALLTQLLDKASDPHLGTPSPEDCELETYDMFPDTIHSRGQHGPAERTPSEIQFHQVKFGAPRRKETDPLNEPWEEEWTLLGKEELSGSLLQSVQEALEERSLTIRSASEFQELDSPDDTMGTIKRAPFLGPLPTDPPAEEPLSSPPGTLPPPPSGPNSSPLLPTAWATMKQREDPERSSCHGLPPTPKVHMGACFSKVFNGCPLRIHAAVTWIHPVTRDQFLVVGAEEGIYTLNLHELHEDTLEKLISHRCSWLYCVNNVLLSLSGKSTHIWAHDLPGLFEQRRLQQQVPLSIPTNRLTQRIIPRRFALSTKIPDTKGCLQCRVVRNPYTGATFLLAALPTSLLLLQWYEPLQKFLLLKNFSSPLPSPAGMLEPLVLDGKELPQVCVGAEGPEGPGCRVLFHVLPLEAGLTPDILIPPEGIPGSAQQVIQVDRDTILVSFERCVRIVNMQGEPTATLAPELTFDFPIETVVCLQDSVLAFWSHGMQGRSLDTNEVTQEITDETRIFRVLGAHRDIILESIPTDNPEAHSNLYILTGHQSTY
# Structures can show the parent of a compound that is named as a salt. This is one part of the list. The calls rarely recur for the same compound in another form.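 Kinases were expressed as nanoluciferase fusions in K562 cells and luminescence was read every 4 h between 2 and 18 h as percent of control, DMSO set to 100% and a positive control to 0%. A time point counts as decreased when the signal drops significantly (2 sigma). The hit call is the authors' own, does not follow from the count of time points alone, and its rule is not shown.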
# Biological target: MAP4K2 (UniProt Q12851)
# Assay: number of time points (of 5) at which kinase-Nluc abundance scored as decreased, DMSO-normalised (count); higher = more persistent destabilization
# Conditions: K562; 2-18 h
row,Compound,number of time points
1,C=C(CCC=C(C)C)[C@H]1CC[C@]2(C)[C@@H]1[C@H](O)C[C@@H]1[C@@]3(C)CC[C@H](O[C@@H]4O[C@H](CO)[C@@H](O)[C@H](O)[C@H]4O[C@@H]4O[C@H](CO)[C@@H](O)[C@H](O)[C@H]4O)C(C)(C)[C@@H]3CC[C@]12C [Ginsenoside Rk1] (10 µM),0
2,CCn1c(=O)c(-c2ccc(-c3cncs3)cc2Cl)cc2cnc(Nc3ccc(N4CCN(C)CC4)cc3)nc21 (2.5 µM),0
3,Nc1nccc(Oc2ccc(NC(=O)c3cn(COP(=O)(O)O)cc(-c4ccc(F)cc4)c3=O)cc2F)c1Cl (10 µM),0
4,Cc1cc(-c2cc(OC(=O)c3ccccc3)ccc2Cl)cc2nnc(Nc3ccc(OCCN4CCCC4)cc3)nc12 (0.5 µM),0
5,OC[C@H]1O[C@@H](Oc2cc3c(O)cc(O)cc3[o+]c2-c2cc(O)c(O)c(O)c2)[C@H](O)[C@@H](O)[C@@H]1O [Delphinidin 3-glucoside (chloride)] (10 µM),0
6,O=C(/C=C/c1ccc(O)c(O)c1)c1ccc(O[C@@H]2O[C@H](CO)[C@@H](O)[C@H](O)[C@H]2O)c(O)c1O [Marein] (10 µM),0
7,O=C1Nc2nc(-c3c(O)cccc3OCC3CC3)cc([C@@H]3CCCNC3)c2CO1 [Bay 65-1942 (hydrochloride)] (10 µM),0
8,CC(C)CN(CC(=O)N1CCN(CC(OCc2ccc3ccccc3c2)c2ccc(Cl)cc2Cl)CC1)CC(C)C (centres undefined) [LYN-1604 (dihydrochloride)] (2.5 µM),0
9,CCc1cc(O)c(F)cc1-c1ccc2c(-c3nc4c([nH]3)CN(C3CCN(C)CC3)CC4)n[nH]c2c1 [JAK-IN-5 (hydrochloride)] (2 µM),0
10,Cc1ccc(Nc2cc(-c3cccc(N4C(=O)c5ccccc5C4=O)c3)ncn2)cc1NS(C)(=O)=O (10 µM),0
11,C=C1C(=O)O[C@@H]2C[C@@]3(C)CCC[C@H](C)C3=C[C@H]12 [Alantolactone] (10 µM),0
12,C=C(C)C(=O)Nc1cccc(-c2ncnc3[nH]cc(C(=O)OCC)c23)c1 (10 µM),0
13,CNc1nc(Nc2cnn(C3CCN(C4COC4)CC3F)c2Cl)ncc1C(F)(F)F (centres undefined) (10 µM),0
14,Cc1cc(Nc2cc(Cl)nc(Oc3ccc([N+](=O)[O-])cc3)n2)n[nH]1 [Autophinib] (2.5 µM),0
15,CC(C)=CC[C@H](O)C1=CC(=O)c2c(O)ccc(O)c2C1=O [(-)-Alkannin] (2.5 µM),0
16,CNCc1ccccc1-c1csc([C@@H](C)Nc2nc(C)nc3cc(OC)c(OC)cc23)c1 (2.5 µM),0
17,COc1ncc(-c2nc(N3CCOCC3)nc3c(CN4CCC(C(C)(C)O)CC4)cc(F)cc23)cc1NS(C)(=O)=O [Linperlisib] (10 µM),0
18,O=C(Nc1ccc(F)cc1F)[C@H](NC(=S)Nc1cc(C(F)(F)F)cc(C(F)(F)F)c1)c1ccccc1 (2.5 µM),0
19,O=C1NC(=O)C(=Cc2ccc(-c3ccc(F)cc3)o2)S1 (stereo in doubt) (10 µM),0
20,CCOc1cc(C(=O)N2CCC(N3CCN(C)CC3)CC2)ccc1Nc1ncc2c(n1)N(C1CCCC1)c1ccccc1C(=O)N2C (10 µM),0

# Two compounds picked at random from those above, as already listed:
row,Compound,number of time points
15,CC(C)=CC[C@H](O)C1=CC(=O)c2c(O)ccc(O)c2C1=O [(-)-Alkannin] (2.5 µM),0
20,CCOc1cc(C(=O)N2CCC(N3CCN(C)CC3)CC2)ccc1Nc1ncc2c(n1)N(C1CCCC1)c1ccccc1C(=O)N2C (10 µM),0

# Next results:

row,Compound,number of time points
1,OC(COc1ccc(C(F)(F)F)cc1)CN(Cc1ccccc1)Cc1ccccc1 (centres undefined) (2.5 µM),0
2,C[C@@H]1C(=O)O[C@H](C)[C@H]1C[C@@H](O)[C@](C)(O)[C@H]1CC[C@@]2(O)C3=CC(=O)[C@@H]4C[C@@H](O)[C@@H](O)C[C@]4(C)[C@H]3CC[C@]12C [Cyasterone] (10 µM),0
3,Cc1c(CN2CCN(C(=O)[C@H](C)O)CC2)sc2c(N3CCOCC3)nc(-c3cnc(N)nc3)nc12 [Apitolisib] (10 µM),0
4,CC(C)(C)NC(=O)c1cncn1C1CCN(c2ccc(-c3nnc(C(F)(F)F)o3)cn2)CC1 (10 µM),0
5,NCc1ccc(Nc2ncc(F)c(Nc3ccccc3)n2)cc1 (10 µM),0
6,COC1(c2sc3c(N4CCOCC4)nc(-c4cnc(N)nc4)nc3c2C)COC1 (2.5 µM),0
7,COc1cc2c[n+](C)c3c4cc5c(cc4ccc3c2cc1OC)OCO5 [Nitidine (chloride)] (2 µM),0
8,N#Cc1ccc2ncnc(NC3CCC(N4CCOCC4)CC3)c2c1 (centres undefined) (10 µM),0
9,COc1ccc2c(c1O)OC(C)(C)c1c-2ccc2c1C(=O)N(c1ccc(C(=O)c3ccccc3)cc1)C2=O [Ampkinone] (10 µM),0
10,CC1=C2C(=O)O[C@@H](c3ccoc3)[C@]2(C)CCC1 [Fraxinellone] (10 µM),0
11,CS(=O)(=O)c1ccc(-c2cnc(N)c(C(=O)Nc3ccccc3)n2)cc1 (10 µM),0
12,O=C(NC(NC(=S)Nc1ccc(F)c([N+](=O)[O-])c1)C(Cl)(Cl)Cl)C(c1ccccc1)c1ccccc1 (centres undefined) (10 µM),0
13,COc1cc(C(N)=O)nc(-c2cccc(C#C[C@]3(O)CCN(C)C3=O)c2)c1 (10 µM),0
14,O=C(Nc1cc(Oc2cc(F)c(NC(=O)C3(C(=O)Nc4ccc(F)cc4)CC3)cc2F)ccn1)C1CC1 [Altiratinib] (10 µM),0
15,COc1ccc(Cl)cc1NC(=O)Nc1cc(C)nc2ccccc12 (2.5 µM),0
16,COc1ccc(CC(=O)Nc2nc3c(s2)CCc2ccccc2-3)cc1OC (10 µM),0
17,N[C@H](Cc1c[nH]c2ccccc12)C(=O)N/N=C/c1ccc2nccnc2c1 [Rhosin (hydrochloride)] (10 µM),0
18,CC(C)(C)c1ccc(S(=O)(=O)Nc2ccc(-n3ccnc3)cc2)cc1 (10 µM),0
19,Cc1ccc(-c2c(C(=O)CF)n(CCCO)c3ncnc(N)c23)cc1 (10 µM),0
